Laboratory results: PubChem BioAssay AID1347076 (National Center for Advancing Translational Sciences (NCATS), 2019)
The campaign covered roughly 400,000 compounds. About 13,000 (3.2%) were called active. Inconclusive means that the source gave no clear call. Such entries were picked first, then a sample of the others. The call rests on the fitted dose curve; in most records, active means well fitted cell-killing curve with a large enough effect; inconclusive means small, poorly fitted or top-dose-only effect, or effect the other way; inactive means flat fitted curve, though single readings scatter. Potencies beside an inconclusive call are fits to weak or partial responses and may not hold up.
On the % scale 0 is the no-effect control and ±100 the full control effect; potency means the concentration at half of the fitted maximal effect.

Experiment: qHTS assay for MDR1-selective chemotherapeutics: Primary screen using the drug-selected MDR subline cells KB-V1; further: nearly all actives have a fitted effect of over 60% in size
Conditions: KB-V1 MDR cells viability, CellTiter-Glo, 72 h; activity change, negative = cytotoxicity: at 46.1 µM (top of the series)
How it was run: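 qHTS viability screen in drug-selected KB-V1 MDR cells: 72 h compound treatment at 37 degrees C, ATP luminescence end point.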
For `CC1CCc2nc(NC(=O)c3ccc(S(=O)(=O)N4CCCc5ccccc54)cc3)sc2C1` (centres undefined), the Potency was inconclusive: 2.31 µM [cytotoxic, full curve, poor fit]. For `Cc1cc(N2CCOCC2)nc(SCC(=O)c2ccc(Cl)cc2)n1`, the Potency was inconclusive: 11.6 µM [cytotoxic, partial curve]. For `Clc1cc(Cl)c2nc(N3CCOCC3)sc2c1`, the Potency was inconclusive: 16.4 µM [cytotoxic, single point]. In the case of `CCOC(=O)CSc1nc2c(sc3ccccc32)c(=O)n1CCCN1CCOCC1`, the Potency is reported as active: 14.6 µM. With `Cc1occc1-c1nnc(SC(C)C(=O)Nc2ccccc2F)o1` (centres undefined) the Potency was active: 10.3 µM. In the case of `COc1ccc(C(=O)NNC(=O)c2cccc3ccccc23)cc1`, the “activity change, negative = cytotoxicity” value is reported as inactive: -7.02%. In the case of `CC(=O)C1=C(O)C(=O)N(c2ccc(Br)cc2)C1c1cccc([N+](=O)[O-])c1` (centres undefined), the Potency is reported as inconclusive: 32.6 µM [rising, single point]. In the case of `O=C(CN1C(=O)NC2(CCCCC2)C1=O)Nc1cc(C(F)(F)F)ccc1N1CCOCC1`, the Potency is reported as inconclusive: 13 µM [cytotoxic, partial curve]. With `CCCN(CC(=O)Nc1ccccc1OC)C(=O)c1cc2ccccc2o1` the Potency was inconclusive: 20.6 µM [cytotoxic, single point]. In the case of `COc1cccc(C2SCC(=O)N2c2ccc(C)cc2)c1OC` (centres undefined), the Potency is reported as inconclusive: 29.1 µM [cytotoxic, single point]. With `NS(=O)(=O)c1ccc(N2CCCCCC2)c([N+](=O)[O-])c1` the Potency was inconclusive: 29.1 µM [rising, single point]. For `COc1cccc(-c2csc(N3CCN(C(=S)Nc4cccc(Cl)c4)CC3)n2)c1`, the Potency was inconclusive: 20.6 µM [cytotoxic, single point]. For `CCC(=O)Nc1ccc(S(=O)(=O)Nc2cccc(C)c2)cc1OC`, the Potency was active: 18.4 µM. For `O=C(NCC1CCCO1)c1ccc(Cl)c(S(=O)(=O)N2CCOCC2)c1` (centres undefined), the “activity change, negative = cytotoxicity” value was inactive: -8.68%. In the case of `O=C(CCc1ccccc1)NNC(=S)NCc1ccc(Cl)cc1`, the “activity change, negative = cytotoxicity” value is reported as inactive: -23.6%. In the case of `CCOC(=O)c1ccc(NC(=S)NN)cc1`, the Potency is reported as inconclusive: 29.1 µM [rising, single point]. In the case of `O=C(N/N=C/c1ccc(OC2CSC2)cc1)c1ccc(CN2CCOCC2)cc1`, the Potency is reported as inconclusive: 23.1 µM [cytotoxic, single point]. With `COc1ccc(OC)c(NC(=O)CCNS(=O)(=O)c2ccc3c(c2)c(=O)n(C)c(=O)n3C)c1` the Potency was inconclusive: 16.4 µM [rising, partial curve]. With `CC(=O)c1cccc(NC(=O)C2Cc3c(-c4ccco4)ccnc3O2)c1` (centres undefined) the Potency was active: 4.61 µM. For `Cc1onc(-c2ccccc2Cl)c1C(=O)N1CC(C)OC(C)C1` (centres undefined), the Potency was inconclusive: 29.1 µM [cytotoxic, single point]. For `CCCc1ccc(S(=O)(=O)N2CCN(C(C)C(=O)NCc3ccc(OC)cc3)CC2)cc1` (centres undefined), the activity change, negative = cytotoxicity was inconclusive: -35.3% [cytotoxic]. For `CCOC(=O)/C(=N\Nc1ccccc1)P(=O)(c1ccccc1)c1ccccc1`, the Potency was active: 11.6 µM. In the case of `O=C(NCc1ccc(F)cc1)c1ccc2c(c1)N(Cc1c(F)cccc1Cl)C(=O)CS2`, the Potency is reported as inconclusive: 29.1 µM [cytotoxic, single point]. With `O=C(O)c1ccc(C(=O)O)c(C(=O)c2ccc(NC(=O)c3ccccc3)cc2)c1` the “activity change, negative = cytotoxicity” value was inactive: 0%. For `Cc1ccc(Nc2nc(N)nc(CSC(=S)N3CCN(c4ccccc4)CC3)n2)cc1`, the Potency was active: 16.4 µM. In the case of `CC(C)CN(CC(C)C)S(=O)(=O)N1CCC(C(=O)NCc2ccc3c(c2)OCO3)CC1`, the Potency is reported as inconclusive: 7.31 µM [cytotoxic, partial curve]. With `CC(=O)Oc1cccc(N2C(=O)C3C4C=CC(C4)C3C2=O)c1` (centres undefined) the “activity change, negative = cytotoxicity” value was inactive: -20%. With `COc1cc(C(=O)Nc2scc(-c3ccc(C)cc3)c2C(=O)O)cc(OC)c1OC` the “activity change, negative = cytotoxicity” value was inactive: 1.5%. With `O=C(c1ccco1)N1CCN(S(=O)(=O)c2ccc(Oc3ccccc3)cc2)CC1` the Potency was inconclusive: 11.6 µM [cytotoxic, partial curve]. With `CCOC(=O)[C@]12CCCC=C1N(Cc1ccc(Cl)cc1Cl)C(=O)[C@H](CC(=O)NCCC(C)C)C2` the Potency was inconclusive: 23.1 µM [cytotoxic, partial curve, poor fit]. For `O=C(Nc1cccc(Cl)c1)Nc1cc(S(=O)(=O)N2CCCCC2)ccc1Cl`, the Potency was inconclusive: 20.6 µM [cytotoxic, single point]. In the case of `CC(C)(C)OC(=O)N(Cc1ccccc1)Cc1ccccc1OCc1cccc(NC(=O)C2CC2)c1`, the Potency is reported as inconclusive: 25.9 µM [cytotoxic, single point]. For `Cc1ccccc1C(=O)Nc1sc(C)c(C)c1C(=O)c1ccccc1`, the Potency was active: 7.31 µM. With `COc1ccc(C2/C=C\CN(S(=O)(=O)c3ccc4ccccc4c3)CC(=O)N2Cc2ccc(F)cc2)cc1` (centres undefined) the Potency was inconclusive: 13 µM [rising, partial curve]. For `Cc1noc(C)c1S(=O)(=O)Nc1ccccc1Oc1ccccc1`, the Potency was inconclusive: 29.1 µM [cytotoxic, single point]. In the case of `CC(=O)Nc1ccc(-c2ccnc3c2CC(C)(C(=O)Nc2cccc(OC(F)(F)F)c2)O3)cc1` (centres undefined), the Potency is reported as inconclusive: 29.1 µM [cytotoxic, single point]. In the case of `COC(=O)c1[nH]c2cc(C)ccc2c1NC(=O)CN1CCN(c2ccccc2OC)CC1`, the Potency is reported as inconclusive: 18.4 µM [cytotoxic, partial curve, poor fit]. For `Cc1ccc(C)c(NC(=O)CN2CCN(C3CCCCC3)C(=O)C2=O)c1`, the Potency was inconclusive: 16.4 µM [rising, single point]. In the case of `Cc1ccc(-c2cn3cc(C)ccc3n2)cc1`, the Potency is reported as inconclusive: 9.2 µM [cytotoxic, partial curve]. In the case of `N#C/C(=C\C=C\c1ccccc1)C(=O)N1CCCC1`, the “activity change, negative = cytotoxicity” value is reported as inactive: 1.29%. With `O=c1oc2ccccc2c2c1ncn2C1CCCCC1` the Potency was inconclusive: 0.708 µM [rising, full curve]. For `CCCOc1ccccc1C(=O)N1CCNC(=O)C1CC(=O)OC(C)C` (centres undefined), the Potency was inconclusive: 20.6 µM [rising, single point]. For `COc1ccc2c(CCNC(=O)Nc3ccccc3)c[nH]c2c1`, the “activity change, negative = cytotoxicity” value was inactive: -0.308%. For `CC(C)CCCCCCNC(=S)Nc1ccc(S(=O)(=O)N2CCOCC2)cc1`, the Potency was active: 8.2 µM.
